According to patent US8835498B2, “Anti-wrinkle agents” (Pola Chemical Industries Inc., priority 2008, dated 2014):
At least one compound was matched to its structure with a doubt left.

Test system: hairless mice
Experiment: Evaluation of wrinkle-reducing effect using photoaging model (UVB-irradiated hairless mice, replica wrinkle score)
Type: in vivo
Details: 0.5% by mass in ethanol (lotion), 100 μL once a day for 8 weeks on dorsal portions after 10 weeks of UVB irradiation; replicas scored visually 1 to 6; vs ethanol control
Protocol: A wrinkle-reducing effect of Cosmetic 1 above was evaluated in a test using a photoaging model.
A total of ten hairless mice, which were six-week-old at the time of the start of a test, were used and divided into two groups each consisting of five mice, i.e., a control group (ethanol solvent administration group) and a sample administration group. The dorsal portions of the hairless mice were irradiated with UVB at a frequency of once a day and three times a week for 10 consecutive weeks to induce photoaging. The UVB irradiation amount was set to 50 mJ/cm^2 for the first week and to 100 mJ/cm^2 on week 2 or later.
In the sample administration group, Cosmetic 1 above was administered to the dorsal portions of the hairless mice. Cosmetic 1 started to be administered to the dorsal portions of the hairless mice on the following day after the completion of the UVB irradiation for 10 weeks, and administered at a dose of 100 μL once a day for 8 weeks. In the control group, the same treatments were performed as those in sample administration group except that ethanol was administered in place of Cosmetic 1 (Lotion 1) in Table 1. […] The scoring operation was performed by three measurers separately and evaluated visually with scores of 1 to 6 at intervals of 0.5. An average value of the results was calculated.

SMILES	wrinkle-reducing effect (wrinkle score)
Cc1ccc(C(=O)NC(CS(=O)(=O)O)C(=O)O)cc1 (centres unmarked) [Compound 3, N-(toluyl)cysteic acid]	excellent wrinkle-reducing effects
CSCCC(NC(=O)c1ccc(C)cc1)C(=O)O (centres unmarked) [Compound 1, N-(toluyl)methionine]	excellent wrinkle-reducing effect
